{
  "source": "patent US20250092085A1",
  "about": "(ASOCIACIÓN CENTRO DE INVESTIGACIÓN COOPERATIVA EN …, priority 2021, published 2025)",
  "assay": "general procedure: Fmoc solid-phase peptide synthesis; Rink Amide MBHA; DIC / Oxyma Pure",
  "settings": "whole synthesis, overall",
  "note": "End groups of sequences in plain letters are not given here.",
  "data": [
    {"sequence": "GVTSAPDTRPAPGSTA", "values": [
      {"measurement": "isolated yield", "value": 44, "unit": "%"}
    ]}
  ]
}
